The term IC50 denotes the concentration at which inhibition is half-maximal.

The chains behind the UniProt entries cited, without tags or fusion partners.
UniProt P08684, whole entry: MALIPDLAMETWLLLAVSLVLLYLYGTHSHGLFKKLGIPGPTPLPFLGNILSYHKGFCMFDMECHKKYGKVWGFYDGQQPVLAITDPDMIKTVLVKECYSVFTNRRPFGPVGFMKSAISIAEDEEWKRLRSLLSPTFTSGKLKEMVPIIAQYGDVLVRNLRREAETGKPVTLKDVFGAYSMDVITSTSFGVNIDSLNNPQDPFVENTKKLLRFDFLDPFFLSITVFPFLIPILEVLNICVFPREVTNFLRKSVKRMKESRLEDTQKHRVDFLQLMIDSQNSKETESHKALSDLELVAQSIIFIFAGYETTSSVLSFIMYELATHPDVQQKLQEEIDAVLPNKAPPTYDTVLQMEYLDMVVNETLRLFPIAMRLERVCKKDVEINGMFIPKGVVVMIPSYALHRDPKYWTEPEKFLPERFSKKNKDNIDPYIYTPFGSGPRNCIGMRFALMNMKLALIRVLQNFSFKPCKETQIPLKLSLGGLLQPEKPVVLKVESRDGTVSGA

The match of structure and compound is tentative. Some results are limits rather than exact numbers.

The target in this series is CYP3A4 (Homo sapiens (Human), UniProt P08684). The experiment in a line: In vitro CYP3A4 inhibition assay (P450-GLO Assay kit, Promega). Particulars: human recombinant CYP3A4, P450-GLO kit.

As to `CCCCc1nc(Cl)c(CO)[nH]1`, the IC50 was above 10 µM.

Source of the values: patent US9138393B2, “Cosmetic compositions containing substituted azole and methods for improving the appearance of aging skin” (The Proctor & Gamble Company, priority 2013, dated 2015).
